In test [1] the target is SseG fused to the GAL4 DNA-binding domain (bait plasmid pGBT-sseG) (Salmonella enterica serovar Typhimurium strain 12023). The test can be described thus: two-hybrid; library screen: bait pGBT-sseG against a pretransformed human HeLa Matchmaker cDNA library; growth on SD-QDO (SD/-Leu-Trp-His-Ade).
Test [2] shares this target. The experiment in a line: two-hybrid; pairwise test in S. cerevisiae PJ69-4A: baits in pGBT9, prey pGAD-ACBD3_(188-528); growth on SD-QDO (SD/-Leu-Trp-His-Ade) against SD-DDO.

Protein sequences, listed by entry. Tags and fused reporters are not part of them. Residues count along the entry.
UniProt Q9H3P7, residues 188-528: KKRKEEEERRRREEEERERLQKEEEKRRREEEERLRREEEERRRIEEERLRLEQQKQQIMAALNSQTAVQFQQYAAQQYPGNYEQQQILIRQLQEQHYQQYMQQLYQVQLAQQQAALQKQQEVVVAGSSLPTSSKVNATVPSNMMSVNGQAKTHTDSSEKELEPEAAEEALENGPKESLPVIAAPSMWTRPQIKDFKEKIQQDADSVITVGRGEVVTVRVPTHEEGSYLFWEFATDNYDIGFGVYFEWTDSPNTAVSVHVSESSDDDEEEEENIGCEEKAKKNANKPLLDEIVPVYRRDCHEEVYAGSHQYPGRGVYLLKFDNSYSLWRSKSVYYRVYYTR

Two substances from PMC4958240 can be followed below.

Results are given in words; binding and its absence hold for the method and conditions named. Binding can be weak; no strength is given.

Consider “ACBD3 residues 188 to 528, prey clone pGAD-cDNA1 isolated from the HeLa cDNA library (from UniProt Q9H3P7 188-528) (domain or fragment)”, for which the binding entry in test [1] is on record as “binds”.

On to “ACBD3_(188-528) subcloned into pGAD424 (pGAD-ACBD3_(188-528)) (from UniProt Q9H3P7 188-528) (domain or fragment)”, for which the binding result in test [2] was “binds”.
